Results published in US10273231B2, “Azoline compounds substituted by a condensed ring system” (BASF SE, priority 2014, dated 2019).
Some results were stated once for a whole list of compounds, not compound by compound.

Legend:
Assay type in all cases: in vivo
[1] = tested on: Diamond Back Moth (Plutella xylostella); experiment: B.1 Diamond back moth leaf-dip test on cabbage leaves; settings: at 300 ppm; 3rd instar larvae; recorded 72 hours after treatment
Procedure: B.1 Diamond Back Moth (Plutella xylostella)
The active compound was dissolved at the desired concentration in a mixture of 1:1 (vol:vol) distilled water:aceteone. Surfactant (Kinetic HV) was added at a rate of 0.01% (vol/vol).The test solution was prepared at the day of use.
Leaves of cabbage were dipped in test solution and air-dried. Treated leaves were placed in petri dishes lined with moist filter paper and inoculated with ten 3rd instar larvae. Mortality was recorded 72 hours after treatment. Feeding damages were also recorded using a scale of 0-100%.

[2] = tested on: Green Soldier Stink Bug (Nezara viridula); experiment: B.11 Green soldier stink bug test on soybean pods in Petri dishes; settings: at 300 ppm; late 3rd instar; recorded after 5 days
Procedure: B.11 Green Soldier Stink Bug (Nezara viridula)
The active compound was dissolved at the desired concentration in a mixture of 1:1 (vol:vol) distilled water:acetone. Surfactant (Kinetic HV) was added at a rate of 0.01% (vol/vol).The test solution was prepared at the day of use.
Soybean pods were placed in glass Petri dishes lined with moist filter paper and inoculated with ten late 3rd instar N. viridula. Using a hand atomizer, approximately 2 ml solution is sprayed into each Petri dish. Assay arenas were kept at about 25° C. Percent mortality was recorded after 5 days.

[3] = tested on: Boll Weevil (Anthonomus grandis); experiment: B.5 Boll weevil test, insect diet with eggs in microtiter plates; settings: at 2500 ppm; egg and larval mortality after 5 days
Procedure: B.5 Boll Weevil (Anthonomus grandis)
For evaluating control of boll weevil (Anthonomus grandis) the test unit consisted of 96-well-microtiter plates containing an insect diet and 5-10 A. grandis eggs.
(§1) The compounds were formulated using a solution containing 75% v/v water and 25% v/v DMSO. Different concentrations of formulated compounds were sprayed onto the insect diet at 5 μl, using a custom built micro atomizer, at two replications.
After application, microtiter plates were incubated at about 25±1° C. and about 75±5% relative humidity for 5 days. Egg and larval mortality was then visually assessed.

[4] = tested on: Vetch Aphid (Megoura viciae); experiment: B.3 Vetch aphid test on broad bean leaf disks; settings: at 2500 ppm; adult aphids; assessed after 5 days
Procedure: B.3 Vetch Aphid (Megoura viciae)
For evaluating control of vetch aphid (Megoura viciae) through contact or systemic means the test unit consisted of 24-well-microtiter plates containing broad bean leaf disks.
The compounds were formulated using a solution containing 75% v/v water and 25% v/v DMSO. Different concentrations of formulated compounds were sprayed onto the leaf disks at 2.5 μl, using a custom built micro atomizer, at two replications.
After application, the leaf disks were air-dried and 5-8 adult aphids placed on the leaf disks inside the microtiter plate wells. The aphids were then allowed to suck on the treated leaf disks and incubated at about 23±10C and about 50±5% relative humidity for 5 days. Aphid mortality and fecundity was then visually assessed.

[5] = tested on: Mediterranean Fruitfly (Ceratitis capitata); experiment: B.6 Mediterranean fruitfly test, insect diet with eggs in microtiter plates; settings: at 2500 ppm; egg and larval mortality after 5 days
Procedure: B.6 Mediterranean Fruitfly (Ceratitis capitata)
as §1, with “For evaluating control of Mediterranean fruitfly (Ceratitis capitata) the test unit consisted of microtiter plates containing an insect diet and 50-80 C. capitata eggs. The” for “The”
After application, microtiter plates were incubated at about 28±1° C. and about 80+5% relative humidity for 5 days. Egg and larval mortality was then visually assessed.

[6] = tested on: Tobacco Budworm (Heliothis virescens); experiment: B.4 Tobacco budworm test, insect diet with eggs in microtiter plates; settings: at 2500 ppm; egg and larval mortality after 5 days
Procedure: B.4 Tobacco Budworm (Heliothis virescens)
For evaluating control of tobacco budworm (Heliothis virescens) the test unit consisted of 96-well-microtiter plates containing an insect diet and 15-25 H. virescens eggs.
The compounds were formulated using a solution containing 75% v/v water and 25% v/v DMSO. Different concentrations of formulated compounds were sprayed onto the insect diet at 10 μl, using a custom built micro atomizer, at two replications.
After application, microtiter plates were incubated at about 28±10C and about 80±5% relative humidity for 5 days. Egg and larval mortality was then visually assessed.

[7] = tested on: Orchid Thrips (Dichromothrips Corbetti); experiment: B.7 Orchid thrips floral-immersion test; settings: at 300 ppm; adult thrips; recorded 72 hours after treatment
Procedure: B.7 Orchid Thrips (Dichromothrips Corbetti) Dichromothrips corbettiadults used for bioassay were obtained from a colony maintained continuously under laboratory conditions. For testing purposes, the test compound is diluted in a 1:1 mixture of acetone:water (vol:vol), plus Kinetic HV at a rate of 0.01% v/v.
Thrips potency of each compound was evaluated by using a floral-immersion technique. All petals of individual, intact orchid flowers were dipped into treatment solution and allowed to dry in Petri dishes. Treated petals were placed into individual re-sealable plastic along with about 20 adult thrips. All test arenas were held under continuous light and a temperature of about 28° C. for duration of the assay. After 3 days, the numbers of live thrips were counted on each petal. The percent mortality was recorded 72 hours after treatment.

[8] = tested on: Green Peach Aphid (Myzus persicae); experiment: B.2 Green peach aphid systemic test, artificial diet under membrane in microtiter plates; settings: at 2500 ppm; adult aphids; assessed after 3 days
From the text: B.2 Green Peach Aphid (Myzus persicae)
For evaluating control of green peach aphid (Myzus persicae) through systemic means the test unit consisted of 96-well-microtiter plates containing liquid artificial diet under an artificial membrane.
The compounds were formulated using a solution containing 75% v/v water and 25% v/v DMSO. Different concentrations of formulated compounds were pipetted into the aphid diet, using a custom built pipetter, at two replications.
After application, 5-8 adult aphids were placed on the artificial membrane inside the microtiter plate wells. The aphids were then allowed to suck on the treated aphid diet and incubated at about 23±1° C. and about 50±5% relative humidity for 3 days. Aphid mortality and fecundity was then visually assessed.

[9] = tested on: Rice Green Leafhopper (Nephotettix virescens); experiment: B.8 Rice green leafhopper test on sprayed rice seedlings; settings: at 300 ppm; adults; recorded after 72 hours
Procedure: B.8 Rice Green Leafhopper (Nephotettix virescens)
Rice seedlings were cleaned and washed 24 hours before spraying. The active compounds were formulated in 1:1 acetone:water (vol:vol), and 0.01% vol/vol surfactant (Kinetic HV) was added. Potted rice seedlings were sprayed with 5-6 ml test solution, air dried, covered with Mylar cages cages and inoculated with 10 adults. Treated rice plants were kept at about 28-29° C. and relative humidity of about 50-60%. Percent mortality was recorded after 72 hours.

Measured: mortality in comparison with untreated controls

O=C(CNC(=O)c1ccc(C2=NOC(c3cc(Cl)c(F)c(Cl)c3)(C(F)(F)F)C2)c2c1OCC2)NCC(F)(F)F (centres unmarked) [Compound I-3]
not listed: [9]
at least 75%: all other assays above

C=CCNC(=O)CNC(=O)c1ccc(C2=NOC(c3cc(Cl)c(F)c(Cl)c3)(C(F)(F)F)C2)c2c1OCC2 (centres unmarked) [Compound I-5]
not listed: [2] | [9]
at least 75%: all other assays above

CCN1OC[C@H](NC(=O)c2ccc(C3=NOC(c4cc(Cl)c(F)c(Cl)c4)(C(F)(F)F)C3)c3c2OCC3)C1=O (some centres unmarked) [Compound I-12]
not listed: [2]
at least 75%: all other assays above

O=C(NCc1ncccn1)c1ccc(C2=NOC(c3cc(Cl)c(F)c(Cl)c3)(C(F)(F)F)C2)c2c1COC2 (centres unmarked) [Compound I-24]
not listed: [2]
at least 75%: all other assays above

O=C(NCc1ncccn1)c1ccc(C2=NOC(c3cc(Cl)c(F)c(Cl)c3)(C(F)(F)F)C2)c2c1OCCC2 (centres unmarked) [Compound I-30]
not listed: [2]
at least 75%: all other assays above

O=C(NCc1ccccn1)c1ccc(C2=NOC(c3cc(Cl)c(F)c(Cl)c3)(C(F)(F)F)C2)c2c1OCCC2 (centres unmarked) [Compound I-31]
not listed: [2]
at least 75%: all other assays above

O=C(CNC(=O)c1ccc(C2=NOC(c3cc(Cl)c(F)c(Cl)c3)(C(F)(F)F)C2)c2c1OCCC2)NCC(F)(F)F (centres unmarked) [Compound I-32]
not listed: [2] | [9]
at least 75%: all other assays above

O=C(NC1CCC1)c1ccc(C2=NOC(c3cc(Cl)c(F)c(Cl)c3)(C(F)(F)F)C2)c2c1COC2 (centres unmarked) [Compound I-36]
at least 75%: [1] | [7] | [9]

O=C(NC1CS(=O)(=O)C1)c1ccc(C2=NOC(c3cc(Cl)c(F)c(Cl)c3)(C(F)(F)F)C2)c2c1COC2 (centres unmarked) [Compound I-41]
not listed: [2] | [9]
at least 75%: all other assays above

O=C(NC1CCC1)c1ccc(C2=NOC(c3cc(Cl)c(F)c(Cl)c3)(C(F)(F)F)C2)c2c1CS(=O)(=O)C2 (centres unmarked) [Compound I-46]
not listed: [2] | [9]
at least 75%: all other assays above

O=C(NC1CSC1)c1ccc(C2=NOC(c3cc(Cl)c(F)c(Cl)c3)(C(F)(F)F)C2)c2c1CS(=O)(=O)C2 (centres unmarked) [Compound I-50]
not listed: [1] | [2] | [9]
at least 75%: all other assays above

O=C(NCc1ncccn1)c1ccc(C2=NOC(c3cc(Cl)c(F)c(Cl)c3)(C(F)(F)F)C2)c2c1CSC2 (centres unmarked) [Compound I-52]
at least 75%: [1] | [7] | [9]
